# Assay results from paper PMC7819943, “Rice protein-binding microarrays: a tool to detect cis-acting elements near promoter regions in rice”.
# The list shows a part of the results.
# Molecular target: T1, OsSMF1 (Oryza sativa, UniProt Q6ZLB0 1-436)
# T1 sequence: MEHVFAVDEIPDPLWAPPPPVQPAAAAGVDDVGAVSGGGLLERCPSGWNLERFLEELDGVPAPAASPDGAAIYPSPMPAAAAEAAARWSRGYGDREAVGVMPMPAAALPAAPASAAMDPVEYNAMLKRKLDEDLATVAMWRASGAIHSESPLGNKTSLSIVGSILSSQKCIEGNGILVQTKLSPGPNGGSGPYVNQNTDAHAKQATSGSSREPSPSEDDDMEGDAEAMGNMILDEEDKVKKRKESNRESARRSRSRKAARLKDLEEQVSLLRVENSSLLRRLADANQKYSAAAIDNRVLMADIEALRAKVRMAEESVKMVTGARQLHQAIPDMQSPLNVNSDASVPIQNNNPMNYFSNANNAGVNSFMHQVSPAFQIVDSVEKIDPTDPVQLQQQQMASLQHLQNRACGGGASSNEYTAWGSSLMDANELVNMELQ
# Assay: protein-binding microarray (RPBM); PBS, 2% BSA, 51.3 ng/ul salmon testes DNA, 50 uM zinc acetate, 200 nM TF, 25 C, 1 h; high values mean tight binding
# Details: protein: recombinant; tags: N-terminal polyhistidine and DsRed monomer fusion (pET32a); chain copies: 2; label: CyDye5-dUTP incorporated in the synthesized complementary strand; 3' TTTTT single-stranded linker to array surface; dsDNA, one strand shown
# In short: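 Transcription factors, each fused N-terminally to a polyhistidine tag and DsRed, were expressed in E. coli BL21-CodonPlus and purified on Ni–NTA. A custom Agilent array was made double-stranded by primer extension with Cy5-dUTP and blocked with 2% BSA. It was incubated with 200 nM protein in PBS, 2% BSA, salmon testes DNA and 50 µM zinc acetate at 25 °C for 1 h, then washed. The binding signal is per-feature fluorescence intensity (arbitrary units) read on an Axon 4000B scanner.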
row,Sequence,binding signal
1,TGTTTATTGGCTTTGTCATATGATAAATGAATTAATTGTTCGGAGTCACCTAGTGCAG,30500 fluorescence intensity (a.u.)
2,GATATATGACACAAGAAAATCGTGGCAATTTAGAATTGGACGGAGTCACCTAGTGCAG,3500 fluorescence intensity (a.u.)
3,TATCCTCTCCTTGGCCACCGCGCCGCCACATCAGCCTCCCCGGAGTCACCTAGTGCAG,6980 fluorescence intensity (a.u.)
4,GTGCTTATCTTCCACTTCCATGGATGTCAAATGTGCGTCACGGAGTCACCTAGTGCAG,4260 fluorescence intensity (a.u.)
5,CGGCCCAGCAGGCGAGCGTGACGTGGACCGGTCGTTTCGCCGGAGTCACCTAGTGCAG,5650 fluorescence intensity (a.u.)
6,AGGGAGGTTGGATTGTGTTGGTCGTGTCGAGTTGGTCTGTCGGAGTCACCTAGTGCAG,4520 fluorescence intensity (a.u.)
7,TGGATATACATATGCCATGTCGATTTTGTGCCGAAGTGGACGGAGTCACCTAGTGCAG,3330 fluorescence intensity (a.u.)
8,GTATGCTTGTTGTACACAGTAATTCTGTCTCATGTAGCCTCGGAGTCACCTAGTGCAG,3420 fluorescence intensity (a.u.)
9,TAGGGAAAGCAGCCGATGGGCACCGTTGGATCGGGACTGTCGGAGTCACCTAGTGCAG,29900 fluorescence intensity (a.u.)
10,TTGTTTATCTGAATTTACTGGAGATACTATGGGATGGAATCGGAGTCACCTAGTGCAG,3890 fluorescence intensity (a.u.)
11,GAACTTATTCCTATCCTACCCACCCAACCCAACCAAGGCGCGGAGTCACCTAGTGCAG,11900 fluorescence intensity (a.u.)
12,TACCTAATGGCATTGTCCGTCAGCATTTCCAGTGCGTCCACGGAGTCACCTAGTGCAG,3440 fluorescence intensity (a.u.)
13,ACTCGCCATGACGTATTGCCGTATGCGTACATATCTACATCGGAGTCACCTAGTGCAG,5600 fluorescence intensity (a.u.)
14,TTCTCTCTCTCTCCTCTCGATGACGAGTCAACACGTGGGCCGGAGTCACCTAGTGCAG,7790 fluorescence intensity (a.u.)
15,GCGATGACACAATCAAACAAGTTTGAGAACCTGAACGGTCCGGAGTCACCTAGTGCAG,3510 fluorescence intensity (a.u.)
16,CAATGGTATGGTCAAACATACTGCAGAAATCAATGGGGCGCGGAGTCACCTAGTGCAG,4210 fluorescence intensity (a.u.)
17,AGACTAATCTATACACGTAGTCACTATATTTGAATGAAAACGGAGTCACCTAGTGCAG,3540 fluorescence intensity (a.u.)
18,CAAATAATTATTATACTTTGTCATGTCATATAAACTATATCGGAGTCACCTAGTGCAG,3430 fluorescence intensity (a.u.)
19,CCACGCCACAGCGCGAACTCGCTTACGTGCCCTTCTCCACCGGAGTCACCTAGTGCAG,5840 fluorescence intensity (a.u.)
20,CGAATTTGCTACCCCATTTCACAAATCAAAAGTGCAAAGCCGGAGTCACCTAGTGCAG,29200 fluorescence intensity (a.u.)
21,AGCCGCCTCAACCTCCTCGCGCTTTCTCCGCACAACCCGTCGGAGTCACCTAGTGCAG,18000 fluorescence intensity (a.u.)

# Exported as tab-separated lines: entries from further up
row	Sequence	binding signal
3	TATCCTCTCCTTGGCCACCGCGCCGCCACATCAGCCTCCCCGGAGTCACCTAGTGCAG	6980 fluorescence intensity (a.u.)
12	TACCTAATGGCATTGTCCGTCAGCATTTCCAGTGCGTCCACGGAGTCACCTAGTGCAG	3440 fluorescence intensity (a.u.)

# Following part

row,Sequence,binding signal
1,GCACAATTCGCTTCCCAGTCACCTTCCAAATACTCTGGATCGGAGTCACCTAGTGCAG,3860 fluorescence intensity (a.u.)
2,TCATACAGGGTGTTGGGAGGGAGATGACACTGGCTTGGGTCGGAGTCACCTAGTGCAG,3200 fluorescence intensity (a.u.)
3,GTGGGATCATTGGTGGATGGTGATGATGATGATGGTCACACGGAGTCACCTAGTGCAG,4140 fluorescence intensity (a.u.)
4,AGTGAGTGCATGACAGGGAAGAAGATAGGAGAAGGCGGAGCGGAGTCACCTAGTGCAG,3540 fluorescence intensity (a.u.)
5,GTCCCCTTTCCTCTCGCCGCCGACCTCGTCGGCCGTCTCCCGGAGTCACCTAGTGCAG,24600 fluorescence intensity (a.u.)
6,GATTTGGTGATGTGATGTATTTGTGATCTGTGATGCATTTCGGAGTCACCTAGTGCAG,3450 fluorescence intensity (a.u.)
7,TGAGTGTTTGGTGCGTGTGGTTTCTTGGGAGATCATGTTACGGAGTCACCTAGTGCAG,10300 fluorescence intensity (a.u.)
8,AAGCGATGGAAGCAGCAGACGTGTCGCACGGGAATTTGAGCGGAGTCACCTAGTGCAG,5240 fluorescence intensity (a.u.)
9,AGGGAATAATCCCTTATATTATACAATGGAGGGAGTACATCGGAGTCACCTAGTGCAG,18900 fluorescence intensity (a.u.)
10,GCCACTGCCAGGTGGGACCCACGACGACACCCTGCCACGTCGGAGTCACCTAGTGCAG,14200 fluorescence intensity (a.u.)
11,GGTCTTGGTTTCGTCAGCGCCATGGTGTTGTGTGACTTGTCGGAGTCACCTAGTGCAG,5510 fluorescence intensity (a.u.)
12,CCCAAAATGCCCCACTACATGCGCCACGCCGCGCGCTTCCCGGAGTCACCTAGTGCAG,4050 fluorescence intensity (a.u.)
13,AGCACCCACAATTATGCTTAGGTGGATAAACTGCTCGAATCGGAGTCACCTAGTGCAG,3690 fluorescence intensity (a.u.)
14,CCCCTTGCTGAGCCACTGAATCAACTGCTACACCAGCAGCCGGAGTCACCTAGTGCAG,3460 fluorescence intensity (a.u.)
15,ATCAACGCCGGTGGCGTCCCCAACGCCGGCCACGTGGAGCCGGAGTCACCTAGTGCAG,11700 fluorescence intensity (a.u.)
16,AGTATCAGATTCCAACTCACATGCCACGTCACATGCATGCCGGAGTCACCTAGTGCAG,42200 fluorescence intensity (a.u.)
17,AATATTAATGGTGTTCTATATATCTATATACCGCTAATGCCGGAGTCACCTAGTGCAG,26100 fluorescence intensity (a.u.)
18,TGGCTTCATCACCACAGCTCAGCAGCATCATCGCCTTCGCCGGAGTCACCTAGTGCAG,4010 fluorescence intensity (a.u.)
19,GCTTAAGGTGTGGTGGCGTGTTTTGATGCCAACAGTAAGACGGAGTCACCTAGTGCAG,3160 fluorescence intensity (a.u.)
20,CCCCGGCGCACGGATACCTTCCACGTGTTGCGGGCCGGGCCGGAGTCACCTAGTGCAG,11100 fluorescence intensity (a.u.)
21,CGGCGGCGGAGGAGGAGGAGGAGGAGGGCGCGGGGCGGCGCGGAGTCACCTAGTGCAG,3610 fluorescence intensity (a.u.)
